## Primary screen of a compound library

Values are the deposited “Percent Effect”, in %. The controls that fix the scale are not given in the record; negative values are as filed. The compounds are a random part of those screened.

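Whole-parasite assay of Trypanosoma brucei over 72 hours; the read-out is not stated. Concentration: 10 µM. Direction is inferred from retests: higher values go with stronger inhibition. Values scatter widely below zero; nearly all retest evidence comes from the higher of the two concentrations used. About 2,700 compounds were tested under these conditions; 0.51% (about 14) showed 50% or more at least once.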

SMILES	Percent Effect
CC(CNC(=O)c1cc(C2CC2)on1)N1CCc2ccccc21 (centres unmarked)	-64.88
Nc1nccnc1C(=O)NCCCNc1ccc(C(F)(F)F)cn1	23.92
COc1cccc(S(=O)(=O)CCNC2CCc3ncnn3C2)c1 (centres unmarked)	-36.25
CCCC(C#N)NC(=O)c1cc(Br)c2c(c1)OCCO2 (centres unmarked)	-26.58
Cc1nc(C2CCCN2C(=O)c2ccc(N(C)C)nn2)no1 (centres unmarked)	-69.28
CCN(Cc1nc2c(cnn2C)c(=O)[nH]1)c1cc(C)cc(C)c1	-28.14
COCCCNC(=O)CN(C)C(=O)c1ccc(OC)cc1O	-31.68
Cc1cn2nc(N3CCCCC3Cn3cccn3)sc2n1 (centres unmarked)	-39.82
Cc1cccc(C)c1OCCNC(=O)C(C)n1cncn1 (centres unmarked)	-36.32
Cc1nc(C)n(CC2CCCN2Cc2cn3cc(Cl)ccc3n2)n1 (centres unmarked)	-4.205
Cc1cnc(CN2CCOC(Cn3nc(C)cc3C)C2)cn1 (centres unmarked)	2.159
CC(C)N1CCN(C(=O)Cc2csc(-c3ccco3)n2)CC1	-17.57
CCc1ocnc1C(=O)N1CCOC(c2nc(C)n[nH]2)C1 (centres unmarked)	-27.2
c1ccc2nc(N3CCOC(Cn4cncn4)C3)cnc2c1 (centres unmarked)	-2.107
Cc1occc1C(=O)NCc1cccnc1N(C)C	-52.06
CC(=O)NCC1CCN(C(=O)NCCc2ccc(Cl)s2)CC1	-19.39
Cc1cc(C(=O)N2CCCC(n3cncn3)C2)c(C)n1CC1CC1 (centres unmarked)	-32.45
CC1CCCN(C(=O)C2CCN(c3snc4ccccc34)CC2)C1 (centres unmarked)	-12.06
N#CC1CCN(C(=O)NCCc2ccc(Cl)s2)CC1	-1.194
O=C(c1ccn(-c2ccccc2)n1)N1CCCC(n2cccn2)C1 (centres unmarked)	-20.2
Cc1ccsc1C(=O)N1CCCN(Cc2cscn2)CC1	-20.65
Cc1occc1C(=O)N1CCCC(c2nncn2C)C1 (centres unmarked)	-58.76
CS(=O)(=O)N1CCC(NC(=O)COc2ccccc2Cl)CC1	-33.5
c1cnc(-c2nc(CN3CCN(CC4CC4)CC3)cs2)nc1	-29.9
CCc1cccc(N2CCC(NC(=O)c3ccncc3)CC2)c1	-27.07
Cc1cnn(CC2CCCCN2C(=O)c2ccc(N(C)C)nc2)c1 (centres unmarked)	-47.72
CCc1n[nH]c(C2CN(C(=O)CCc3cscn3)CCO2)n1 (centres unmarked)	-65.23
CC(C)CS(=O)(=O)CC(=O)NC(C)c1nnc2n1CCC2 (centres unmarked)	-23.22
Clc1ccccc1-c1nnc(CNCCn2cccn2)o1	-5.679
CCc1noc(CN2CCN(C(=O)C3CC3)CC2)n1	-20.32
Cc1ccc(C(=O)N2CCN(Cc3ccc(C#N)cc3)CC2)n1C	2.26
CC(C)(C)NC(=O)CCOc1cccc(F)c1	-74.47
COc1ccc(C(C)N(C)Cc2nc3c(cnn3C)c(=O)[nH]2)cc1 (centres unmarked)	-47.96
CC(=O)N(C)CCCc1cc(-c2ccccc2)no1	-99.85
Cc1nc(C)n(CC2CN(CCOc3ccc(C#N)cc3)CCO2)n1 (centres unmarked)	-42.3
CN(C)c1ncccc1CNS(=O)(=O)c1ccccc1Cl	-36.42
COc1cccc(CNC(=O)CN2CCCC(Cn3cncn3)C2)c1 (centres unmarked)	-8.75
CC(C)(C)c1n[nH]c(C2CN(Cc3nnc(C4CC4)o3)CCO2)n1 (centres unmarked)	19.44
Cc1cc(C(=O)N2CCN(Cc3ccsc3)CC2)c(C)n1C1CC1	-30.53
Cc1cnn(CCNCC(O)COc2cc(Cl)ccc2Cl)c1 (centres unmarked)	13.76
O=C(CCc1ccccc1)N1CCCCC1Cn1cccn1 (centres unmarked)	-74.66
FC(F)CN1CCOC(Cn2cccn2)C1 (centres unmarked)	-37.66
Cn1cnc2c1CCN(Cc1csc(C3CCCCC3)n1)C2	-30.31
COc1ccc(C)cc1C(C)NC(=O)Cn1ccc(=O)n(C)c1=O (centres unmarked)	-35.87
COc1ccc(S(=O)(=O)NCc2cccnc2N(C)C)cc1	-59.49
Cc1nn(C)c(N2CCOCC2)c1CNCc1ccnn1C	-58.39
Cn1ccc(C(=O)NCc2ccccc2CN2CCCC2)cc1=O	-24.54
Clc1snnc1CN1CCCC1Cn1cncn1 (centres unmarked)	3.609
Cc1cc(N2CCC(C(=O)N(C)C)CC2)nc(-c2ccncc2)n1	-38.64
CCCc1noc(CCCC(=O)N2CCCC2c2cnn(C)c2)n1 (centres unmarked)	-49.38
O=C(c1ccccc1N1CCOCC1)N1CCCC(n2ccnc2)C1 (centres unmarked)	5.851
CCc1ccsc1C(=O)N1CCCN(Cc2nccn2CC)CC1	1.705
COc1ccccc1CC(=O)N1CCC(NCc2ccccn2)CC1	-46.73
Cc1csc(N2CCN(CC(=O)NCc3ccccn3)CC2C)n1 (centres unmarked)	-78.4
Cc1ccc(NC2CCN(C(=O)c3cc(C)no3)CC2)nn1	-45.79

Some entries from above, unchanged:

SMILES	Percent Effect
CCc1n[nH]c(C2CN(C(=O)CCc3cscn3)CCO2)n1 (centres unmarked)	-65.23
Cc1cn2nc(N3CCCCC3Cn3cccn3)sc2n1 (centres unmarked)	-39.82
CS(=O)(=O)N1CCC(NC(=O)COc2ccccc2Cl)CC1	-33.5
COc1cccc(S(=O)(=O)CCNC2CCc3ncnn3C2)c1 (centres unmarked)	-36.25
FC(F)CN1CCOC(Cn2cccn2)C1 (centres unmarked)	-37.66
CC(C)(C)NC(=O)CCOc1cccc(F)c1	-74.47

Data taken from ChEMBL document CHEMBL3988442, “University of Dundee, Small-Polar-MMV Screening Library” (2021).